Data taken from the supplement of paper PMC8612539.
Values after ≈ are worked out from the molar mass of the structure shown. The source gives many values for each of these; only a part stands here.

Tested on: Escherichia coli
Assay: minimum inhibitory concentration (MIC)
Method: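 Broth microdilution MIC (Sensititre BOPO7F bovine plate, CLSI methods) of 19 antimicrobials against field isolates of P. multocida, M. haemolytica, H. somni (deep nasopharyngeal swabs) and E. coli, Enterococcus spp. (rectal swabs) from weaned dairy heifers. Incubation 16-24 h at 35 C. MIC is the lowest concentration preventing visible growth. Values with <= or > lie at the tested range limits. Trimethoprim-sulfamethoxazole is given as the trimethoprim component of a 1:19 mixture.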

CC[C@H]1OC(=O)C[C@@H](O)[C@H](C)[C@@H](O[C@@H]2O[C@H](C)[C@@H](O)[C@H](N(C)C)[C@H]2O)[C@@H](CCN2C[C@H](C)C[C@H](C)C2)C[C@@H](C)C(=O)/C=C/C(C)=C/[C@@H]1CO[C@@H]1O[C@H](C)[C@@H](O)[C@@H](OC)[C@H]1OC [Tilmicosin]
Conditions	minimum inhibitory concentration [µg/mL]
isolate (source animal id): 1	> 16
isolate (source animal id): 2	> 16
isolate (source animal id): 3	> 16
isolate (source animal id): 4	> 16
isolate (source animal id): 5	> 16
isolate (source animal id): 6	> 16
isolate (source animal id): 7	> 16
isolate (source animal id): 17	> 16
isolate (source animal id): 18	> 16
isolate (source animal id): 19	> 16
isolate (source animal id): 20	> 16
isolate (source animal id): 21	> 16
isolate (source animal id): 22	> 16
isolate (source animal id): 23	> 16
isolate (source animal id): 24	> 16
isolate (source animal id): 25	> 16
isolate (source animal id): 26	> 16
isolate (source animal id): 27	> 16
isolate (source animal id): 28	> 16
isolate (source animal id): 29	> 16
isolate (source animal id): 30	> 16
isolate (source animal id): 31	> 16
isolate (source animal id): 32	> 16
isolate (source animal id): 33	> 16
isolate (source animal id): 34	> 16
isolate (source animal id): 35	> 16
isolate (source animal id): 36	> 16
isolate (source animal id): 37	> 16
isolate (source animal id): 38	> 16
isolate (source animal id): 39	> 16
isolate (source animal id): 40	> 16
isolate (source animal id): 41	> 16
isolate (source animal id): 42	> 16
isolate (source animal id): 43	> 16
isolate (source animal id): 44	> 16
isolate (source animal id): 45	> 16
isolate (source animal id): 46	> 16
isolate (source animal id): 47	> 16
isolate (source animal id): 48	> 16
isolate (source animal id): 49	> 16
isolate (source animal id): 50	> 16
isolate (source animal id): 51	> 16
isolate (source animal id): 52	> 16
isolate (source animal id): 53	> 16
isolate (source animal id): 54	> 16
isolate (source animal id): 55	> 16
isolate (source animal id): 56	> 16
isolate (source animal id): 57	> 16
isolate (source animal id): 58	> 16
isolate (source animal id): 59	> 16
isolate (source animal id): 60	> 16
isolate (source animal id): 61	> 16
isolate (source animal id): 62	> 16
isolate (source animal id): 63	> 16
isolate (source animal id): 64	> 16
isolate (source animal id): 65	> 16
isolate (source animal id): 66	> 16
isolate (source animal id): 67	> 16
isolate (source animal id): 68	> 16
isolate (source animal id): 69	> 16
isolate (source animal id): 70	> 16
isolate (source animal id): 71	> 16
isolate (source animal id): 72	> 16
isolate (source animal id): 73	> 16
isolate (source animal id): 74	> 16
isolate (source animal id): 75	> 16
isolate (source animal id): 76	> 16
isolate (source animal id): 77	> 16
isolate (source animal id): 78	> 16
isolate (source animal id): 79	> 16
isolate (source animal id): 80	> 16
isolate (source animal id): 81	> 16
isolate (source animal id): 82	> 16
isolate (source animal id): 83	> 16
isolate (source animal id): 84	> 16
isolate (source animal id): 85	> 16
isolate (source animal id): 86	> 16
isolate (source animal id): 87	> 16
isolate (source animal id): 88	> 16
isolate (source animal id): 89	> 16
isolate (source animal id): 90	> 16
isolate (source animal id): 91	> 16
isolate (source animal id): 92	> 16
isolate (source animal id): 93	> 16
isolate (source animal id): 94	> 16
isolate (source animal id): 95	> 16
isolate (source animal id): 96	> 16
isolate (source animal id): 97	> 16
isolate (source animal id): 189	> 16
isolate (source animal id): 190	> 16
isolate (source animal id): 191	> 16
isolate (source animal id): 192	> 16
isolate (source animal id): 193	> 16
isolate (source animal id): 194	> 16
isolate (source animal id): 195	> 16
isolate (source animal id): 196	> 16
isolate (source animal id): 197	> 16
isolate (source animal id): 198	> 16
isolate (source animal id): 199	> 16
isolate (source animal id): 200	> 16
isolate (source animal id): 201	> 16
isolate (source animal id): 202	> 16
isolate (source animal id): 203	> 16
isolate (source animal id): 204	> 16
isolate (source animal id): 205	> 16
isolate (source animal id): 206	> 16
isolate (source animal id): 207	> 16
isolate (source animal id): 208	> 16
isolate (source animal id): 209	> 16
isolate (source animal id): 210	> 16
isolate (source animal id): 211	> 16
isolate (source animal id): 212	> 16
isolate (source animal id): 213	> 16
isolate (source animal id): 214	> 16
isolate (source animal id): 215	> 16
isolate (source animal id): 216	> 16
isolate (source animal id): 217	> 16
isolate (source animal id): 218	> 16
isolate (source animal id): 219	> 16
isolate (source animal id): 220	> 16
isolate (source animal id): 221	> 16
isolate (source animal id): 222	> 16
isolate (source animal id): 223	> 16
isolate (source animal id): 224	> 16
isolate (source animal id): 225	> 16
isolate (source animal id): 226	> 16
isolate (source animal id): 227	> 16
isolate (source animal id): 228	> 16
isolate (source animal id): 229	> 16
isolate (source animal id): 230	> 16
isolate (source animal id): 231	> 16
isolate (source animal id): 232	> 16
isolate (source animal id): 233	16 (≈ 18.4 µM)
isolate (source animal id): 234	> 16
isolate (source animal id): 235	> 16
isolate (source animal id): 236	> 16
isolate (source animal id): 237	> 16
isolate (source animal id): 238	16 (≈ 18.4 µM)
isolate (source animal id): 239	> 16
isolate (source animal id): 240	> 16
isolate (source animal id): 241	> 16
isolate (source animal id): 242	> 16
isolate (source animal id): 243	> 16
isolate (source animal id): 244	> 16
isolate (source animal id): 245	> 16
isolate (source animal id): 246	> 16
isolate (source animal id): 247	16 (≈ 18.4 µM)
isolate (source animal id): 248	> 16
isolate (source animal id): 249	> 16
isolate (source animal id): 250	> 16
isolate (source animal id): 251	> 16
isolate (source animal id): 252	> 16
isolate (source animal id): 253	> 16
isolate (source animal id): 254	> 16
isolate (source animal id): 255	> 16
isolate (source animal id): 256	> 16
isolate (source animal id): 257	> 16
isolate (source animal id): 258	> 16
isolate (source animal id): 259	> 16
isolate (source animal id): 260	> 16
isolate (source animal id): 261	> 16
isolate (source animal id): 262	> 16
isolate (source animal id): 263	> 16
isolate (source animal id): 264	> 16
isolate (source animal id): 265	> 16
isolate (source animal id): 266	> 16
isolate (source animal id): 267	> 16
isolate (source animal id): 268	> 16
isolate (source animal id): 269	> 16
isolate (source animal id): 270	> 16
isolate (source animal id): 271	> 16
isolate (source animal id): 272	> 16
isolate (source animal id): 273	> 16
isolate (source animal id): 274	> 16
isolate (source animal id): 275	> 16
isolate (source animal id): 276	> 16
isolate (source animal id): 277	> 16
isolate (source animal id): 278	> 16
isolate (source animal id): 279	> 16
isolate (source animal id): 280	> 16
isolate (source animal id): 281	> 16
isolate (source animal id): 282	> 16
isolate (source animal id): 283	> 16
isolate (source animal id): 284	> 16
isolate (source animal id): 285	> 16
isolate (source animal id): 286	> 16
isolate (source animal id): 287	> 16
isolate (source animal id): 288	> 16
isolate (source animal id): 289	> 16
isolate (source animal id): 290	> 16
isolate (source animal id): 291	> 16
isolate (source animal id): 292	> 16
isolate (source animal id): 293	> 16
isolate (source animal id): 294	16 (≈ 18.4 µM)
isolate (source animal id): 295	> 16
isolate (source animal id): 296	> 16
isolate (source animal id): 297	> 16
isolate (source animal id): 298	> 16
isolate (source animal id): 299	> 16
isolate (source animal id): 300	> 16
isolate (source animal id): 301	> 16
isolate (source animal id): 302	> 16
isolate (source animal id): 303	> 16
isolate (source animal id): 304	> 16
isolate (source animal id): 305	> 16
isolate (source animal id): 306	> 16
isolate (source animal id): 307	> 16
isolate (source animal id): 308	> 16
isolate (source animal id): 309	> 16
isolate (source animal id): 310	> 16
isolate (source animal id): 311	> 16
isolate (source animal id): 312	> 16
isolate (source animal id): 313	> 16
isolate (source animal id): 314	> 16
isolate (source animal id): 315	> 16
isolate (source animal id): 316	> 16
isolate (source animal id): 317	16 (≈ 18.4 µM)
isolate (source animal id): 318	> 16
isolate (source animal id): 319	> 16
isolate (source animal id): 320	> 16
isolate (source animal id): 321	> 16
isolate (source animal id): 322	> 16
isolate (source animal id): 323	> 16
isolate (source animal id): 324	> 16
isolate (source animal id): 325	> 16
isolate (source animal id): 326	> 16
isolate (source animal id): 327	> 16
isolate (source animal id): 328	> 16
isolate (source animal id): 329	> 16
isolate (source animal id): 330	> 16
isolate (source animal id): 331	> 16
isolate (source animal id): 332	> 16
isolate (source animal id): 333	> 16
isolate (source animal id): 334	> 16
isolate (source animal id): 335	> 16
isolate (source animal id): 336	> 16
isolate (source animal id): 337	> 16
isolate (source animal id): 338	> 16
isolate (source animal id): 339	> 16
isolate (source animal id): 340	> 16
isolate (source animal id): 341	> 16
